Reference: publication PMC7969741
These are yes or no findings as the source states them, for the method shown. Binding seen in cells or lysates may run through a third protein. Some binding calls cover weakened binding; strength is not graded here.

The chains behind the UniProt entries cited, without tags or fusion partners. Residues count along the entry.
UniProt P18564, residues 22-788: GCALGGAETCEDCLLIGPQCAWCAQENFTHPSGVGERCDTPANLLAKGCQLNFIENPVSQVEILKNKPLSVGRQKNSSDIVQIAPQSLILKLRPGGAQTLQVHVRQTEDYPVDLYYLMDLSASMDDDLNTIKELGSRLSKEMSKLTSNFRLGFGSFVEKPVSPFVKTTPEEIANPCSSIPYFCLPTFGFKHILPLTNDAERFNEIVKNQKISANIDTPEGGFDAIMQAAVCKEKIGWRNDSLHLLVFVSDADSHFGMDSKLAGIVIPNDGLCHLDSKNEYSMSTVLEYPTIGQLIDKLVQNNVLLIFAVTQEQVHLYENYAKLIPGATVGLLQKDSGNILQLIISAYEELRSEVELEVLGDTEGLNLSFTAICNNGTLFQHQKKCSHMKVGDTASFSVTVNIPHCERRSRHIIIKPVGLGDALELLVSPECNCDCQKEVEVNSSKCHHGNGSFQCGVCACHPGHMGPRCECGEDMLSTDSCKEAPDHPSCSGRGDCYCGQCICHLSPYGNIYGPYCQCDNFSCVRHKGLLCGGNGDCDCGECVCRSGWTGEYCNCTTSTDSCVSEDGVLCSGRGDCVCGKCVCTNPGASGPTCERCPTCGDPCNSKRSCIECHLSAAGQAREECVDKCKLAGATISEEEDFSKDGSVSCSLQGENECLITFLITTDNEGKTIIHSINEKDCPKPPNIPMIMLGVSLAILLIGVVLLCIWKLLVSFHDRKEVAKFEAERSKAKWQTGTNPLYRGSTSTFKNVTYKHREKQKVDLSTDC
UniProt Q9Y490: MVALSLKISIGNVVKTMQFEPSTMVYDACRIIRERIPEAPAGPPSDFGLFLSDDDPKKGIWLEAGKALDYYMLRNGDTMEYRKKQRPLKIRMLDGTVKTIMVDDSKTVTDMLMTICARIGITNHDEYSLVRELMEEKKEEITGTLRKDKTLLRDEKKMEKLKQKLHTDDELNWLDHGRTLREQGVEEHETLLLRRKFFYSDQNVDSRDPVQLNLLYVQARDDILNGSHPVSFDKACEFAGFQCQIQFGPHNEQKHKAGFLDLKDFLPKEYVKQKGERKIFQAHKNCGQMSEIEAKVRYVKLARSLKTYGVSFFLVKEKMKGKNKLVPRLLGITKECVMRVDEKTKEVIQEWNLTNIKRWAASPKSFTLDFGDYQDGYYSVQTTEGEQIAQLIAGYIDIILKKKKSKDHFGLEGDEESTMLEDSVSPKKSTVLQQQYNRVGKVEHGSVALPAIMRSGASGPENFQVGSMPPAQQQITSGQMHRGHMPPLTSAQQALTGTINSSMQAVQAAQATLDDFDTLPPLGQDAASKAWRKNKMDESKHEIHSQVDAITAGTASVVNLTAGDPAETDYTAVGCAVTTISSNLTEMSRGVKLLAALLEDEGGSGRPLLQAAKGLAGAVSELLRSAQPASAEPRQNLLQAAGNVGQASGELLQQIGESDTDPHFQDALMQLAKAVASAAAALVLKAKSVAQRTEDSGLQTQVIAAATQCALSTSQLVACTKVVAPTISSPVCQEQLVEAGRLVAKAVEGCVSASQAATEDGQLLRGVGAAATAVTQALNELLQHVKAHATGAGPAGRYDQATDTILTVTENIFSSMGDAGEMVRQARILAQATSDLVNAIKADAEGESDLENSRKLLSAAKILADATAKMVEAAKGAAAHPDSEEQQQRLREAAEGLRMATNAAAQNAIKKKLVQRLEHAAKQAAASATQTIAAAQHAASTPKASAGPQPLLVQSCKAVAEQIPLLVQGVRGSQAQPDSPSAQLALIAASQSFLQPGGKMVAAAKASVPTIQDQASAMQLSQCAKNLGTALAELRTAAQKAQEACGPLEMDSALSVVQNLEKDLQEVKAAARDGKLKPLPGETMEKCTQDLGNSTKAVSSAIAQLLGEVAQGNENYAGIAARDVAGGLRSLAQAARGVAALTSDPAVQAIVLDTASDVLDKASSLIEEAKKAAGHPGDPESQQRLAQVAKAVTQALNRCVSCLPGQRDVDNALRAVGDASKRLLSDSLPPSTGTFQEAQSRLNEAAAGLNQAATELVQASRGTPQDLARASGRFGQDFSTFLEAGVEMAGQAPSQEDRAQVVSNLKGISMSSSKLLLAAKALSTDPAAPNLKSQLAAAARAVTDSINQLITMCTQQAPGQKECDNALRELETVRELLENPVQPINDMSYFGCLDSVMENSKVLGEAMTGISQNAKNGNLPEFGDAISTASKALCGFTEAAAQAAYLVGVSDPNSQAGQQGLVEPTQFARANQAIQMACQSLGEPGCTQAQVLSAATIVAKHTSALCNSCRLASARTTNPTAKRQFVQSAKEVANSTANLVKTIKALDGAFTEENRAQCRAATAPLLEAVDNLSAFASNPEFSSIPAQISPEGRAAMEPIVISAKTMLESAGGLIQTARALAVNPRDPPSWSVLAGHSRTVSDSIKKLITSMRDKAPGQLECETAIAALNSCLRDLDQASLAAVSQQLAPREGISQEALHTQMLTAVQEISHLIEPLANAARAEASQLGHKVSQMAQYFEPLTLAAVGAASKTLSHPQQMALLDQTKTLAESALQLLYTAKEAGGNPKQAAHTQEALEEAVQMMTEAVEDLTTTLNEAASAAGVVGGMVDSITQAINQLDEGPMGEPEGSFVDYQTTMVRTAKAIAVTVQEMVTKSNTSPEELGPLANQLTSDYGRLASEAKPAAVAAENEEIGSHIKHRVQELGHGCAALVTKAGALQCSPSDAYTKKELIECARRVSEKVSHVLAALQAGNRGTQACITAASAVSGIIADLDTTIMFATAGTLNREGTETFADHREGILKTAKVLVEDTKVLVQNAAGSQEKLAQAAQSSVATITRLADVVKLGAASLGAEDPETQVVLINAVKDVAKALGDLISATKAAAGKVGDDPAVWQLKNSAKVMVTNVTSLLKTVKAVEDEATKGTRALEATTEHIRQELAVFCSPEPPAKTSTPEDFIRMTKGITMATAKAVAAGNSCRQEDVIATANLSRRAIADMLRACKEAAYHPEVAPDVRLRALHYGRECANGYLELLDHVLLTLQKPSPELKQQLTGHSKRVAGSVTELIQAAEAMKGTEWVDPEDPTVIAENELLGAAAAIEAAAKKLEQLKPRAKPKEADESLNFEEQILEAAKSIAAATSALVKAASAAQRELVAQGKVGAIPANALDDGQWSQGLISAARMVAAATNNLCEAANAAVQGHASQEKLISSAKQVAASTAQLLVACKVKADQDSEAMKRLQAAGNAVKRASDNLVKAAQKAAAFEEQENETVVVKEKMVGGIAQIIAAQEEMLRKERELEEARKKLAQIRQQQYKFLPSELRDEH

Legend:
[1] = target: β6 subunit of the integrin complex (human (endogenous in SV40 immortalized human chondrocytes)) (UniProt P18564); assay: co-IP; lysates of SV40 cells and their secreted ECM after 48-h shear stress (6.58 dynes/cm^2); IP with anti-ITGB6 overnight at 4 °C, Protein A magnetic beads, immunoblot for talin
[2] = target: β6 subunit of the integrin complex (human (endogenous in SV40 immortalized human chondrocytes)) (UniProt P18564); assay: co-IP; lysates of SV40 cells and their secreted ECM, cells cultured in the free well (no shear stress); IP with anti-ITGB6 overnight at 4 °C, Protein A magnetic beads, immunoblot for talin

talin (from UniProt Q9Y490 1-2541)
binding [1]: binds | binding [2]: binds weakly
